Laboratory results published in paper PMC4492821.
Results are given in words; binding and its absence hold for the method and conditions named. Binding seen in cells or lysates may run through a third protein. Some results given as binding are weak or reduced against the parent protein; the word gives no strength.

Chains of the proteins cited; added tags and fusions are not shown.
UniProt P25322: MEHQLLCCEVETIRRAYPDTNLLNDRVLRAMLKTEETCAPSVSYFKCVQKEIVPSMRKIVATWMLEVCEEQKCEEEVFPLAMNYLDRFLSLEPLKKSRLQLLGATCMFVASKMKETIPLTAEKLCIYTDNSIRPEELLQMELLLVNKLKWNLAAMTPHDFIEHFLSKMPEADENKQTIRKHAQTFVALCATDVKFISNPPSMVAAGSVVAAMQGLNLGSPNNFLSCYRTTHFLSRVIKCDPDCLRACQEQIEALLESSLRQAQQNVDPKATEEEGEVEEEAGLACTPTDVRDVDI

Target: T1, CDK4 (mouse (endogenous in MAFs)) (UniProt P30285)
T1 sequence: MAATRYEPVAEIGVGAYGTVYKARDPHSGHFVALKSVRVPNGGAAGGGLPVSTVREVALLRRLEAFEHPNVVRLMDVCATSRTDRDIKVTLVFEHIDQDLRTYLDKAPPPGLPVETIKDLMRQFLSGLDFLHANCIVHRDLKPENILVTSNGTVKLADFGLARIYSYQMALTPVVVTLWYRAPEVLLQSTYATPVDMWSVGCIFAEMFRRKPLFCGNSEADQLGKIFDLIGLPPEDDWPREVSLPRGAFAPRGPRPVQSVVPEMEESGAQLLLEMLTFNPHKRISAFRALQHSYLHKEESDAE
Experiment: co-IP; endogenous proteins in +/+ and KI/KI models; immunoprecipitation as previously described (Knudsen et al, 1998); the text shown does not say which protein was precipitated for Supplementary Fig S3B

- binding: binds
Substance: cyclin D1a (from UniProt P25322 1-295)
